These are yes or no findings as the source states them, for the method shown. In cells and extracts the contact can be indirect. Binding can be weak; no strength is given.
What was measured:
[1] = target: ADAM17, human (human (endogenous in HUVEC and DLD1)) (UniProt P78536); test: co-IP; endogenous proteins in whole lysates of human cells (HUVEC, DLD1); NP-40 lysis buffer with protease and phosphatase inhibitors; primary antibody overnight at 4 °C, protein G magnetic beads 2 h at 4 °C, three washes; Western blot
[2] = target: ADAM17, mouse (mouse (endogenous in MC38 and B16F10)) (UniProt Q9Z0F8); test: co-IP; endogenous proteins in whole lysates of mouse cancer cells (MC38, B16F10); NP-40 lysis buffer with protease and phosphatase inhibitors; primary antibody overnight at 4 °C, protein G magnetic beads 2 h at 4 °C, three washes; Western blot
[3] = target: NOX1, human (human (endogenous in HUVEC and DLD1)) (UniProt Q9Y5S8); test: co-IP; endogenous proteins in whole lysates of human cells (HUVEC, DLD1); NP-40 lysis buffer with protease and phosphatase inhibitors; primary antibody overnight at 4 °C, protein G magnetic beads 2 h at 4 °C, three washes; Western blot
[4] = target: T1, NOXO1, human (human (endogenous in HUVEC and DLD1)) (UniProt Q8NFA2); test: as above
T1 sequence: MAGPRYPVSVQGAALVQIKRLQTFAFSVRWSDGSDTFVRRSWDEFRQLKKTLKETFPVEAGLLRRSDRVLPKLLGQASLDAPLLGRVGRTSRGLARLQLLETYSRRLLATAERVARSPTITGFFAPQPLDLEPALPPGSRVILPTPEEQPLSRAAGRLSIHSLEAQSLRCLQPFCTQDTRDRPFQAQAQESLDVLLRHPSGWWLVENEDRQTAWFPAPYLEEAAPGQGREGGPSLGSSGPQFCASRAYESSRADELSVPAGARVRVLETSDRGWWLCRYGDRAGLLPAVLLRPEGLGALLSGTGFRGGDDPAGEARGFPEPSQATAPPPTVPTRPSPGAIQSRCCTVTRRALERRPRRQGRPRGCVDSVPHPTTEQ

By UniProt entry, the sequences of proteins in these tests, tags left out. Where a name states a change or a piece, a line headed by the entry shows the natural chain unless it says otherwise.
UniProt P78536: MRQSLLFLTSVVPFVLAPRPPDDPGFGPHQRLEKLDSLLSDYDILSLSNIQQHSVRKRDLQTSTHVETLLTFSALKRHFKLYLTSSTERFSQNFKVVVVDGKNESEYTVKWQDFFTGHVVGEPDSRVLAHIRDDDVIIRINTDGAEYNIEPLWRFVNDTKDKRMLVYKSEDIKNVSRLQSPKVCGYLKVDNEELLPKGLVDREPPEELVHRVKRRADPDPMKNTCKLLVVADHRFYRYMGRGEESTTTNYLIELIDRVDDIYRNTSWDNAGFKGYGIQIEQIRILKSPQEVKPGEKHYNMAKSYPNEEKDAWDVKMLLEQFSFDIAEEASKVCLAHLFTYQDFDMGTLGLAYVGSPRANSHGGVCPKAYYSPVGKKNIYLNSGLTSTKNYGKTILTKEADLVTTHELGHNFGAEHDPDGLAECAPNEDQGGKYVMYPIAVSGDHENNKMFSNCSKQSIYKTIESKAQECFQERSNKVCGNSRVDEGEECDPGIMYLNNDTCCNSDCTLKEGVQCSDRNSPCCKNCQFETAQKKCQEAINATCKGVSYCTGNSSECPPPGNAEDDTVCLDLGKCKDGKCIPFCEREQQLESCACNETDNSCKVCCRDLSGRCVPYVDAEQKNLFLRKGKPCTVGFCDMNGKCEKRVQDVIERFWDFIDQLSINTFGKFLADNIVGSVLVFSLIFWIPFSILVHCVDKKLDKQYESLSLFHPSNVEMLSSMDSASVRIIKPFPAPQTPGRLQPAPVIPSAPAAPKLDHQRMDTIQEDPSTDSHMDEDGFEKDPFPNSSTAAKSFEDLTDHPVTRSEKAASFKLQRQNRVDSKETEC
UniProt Q9Z0F8: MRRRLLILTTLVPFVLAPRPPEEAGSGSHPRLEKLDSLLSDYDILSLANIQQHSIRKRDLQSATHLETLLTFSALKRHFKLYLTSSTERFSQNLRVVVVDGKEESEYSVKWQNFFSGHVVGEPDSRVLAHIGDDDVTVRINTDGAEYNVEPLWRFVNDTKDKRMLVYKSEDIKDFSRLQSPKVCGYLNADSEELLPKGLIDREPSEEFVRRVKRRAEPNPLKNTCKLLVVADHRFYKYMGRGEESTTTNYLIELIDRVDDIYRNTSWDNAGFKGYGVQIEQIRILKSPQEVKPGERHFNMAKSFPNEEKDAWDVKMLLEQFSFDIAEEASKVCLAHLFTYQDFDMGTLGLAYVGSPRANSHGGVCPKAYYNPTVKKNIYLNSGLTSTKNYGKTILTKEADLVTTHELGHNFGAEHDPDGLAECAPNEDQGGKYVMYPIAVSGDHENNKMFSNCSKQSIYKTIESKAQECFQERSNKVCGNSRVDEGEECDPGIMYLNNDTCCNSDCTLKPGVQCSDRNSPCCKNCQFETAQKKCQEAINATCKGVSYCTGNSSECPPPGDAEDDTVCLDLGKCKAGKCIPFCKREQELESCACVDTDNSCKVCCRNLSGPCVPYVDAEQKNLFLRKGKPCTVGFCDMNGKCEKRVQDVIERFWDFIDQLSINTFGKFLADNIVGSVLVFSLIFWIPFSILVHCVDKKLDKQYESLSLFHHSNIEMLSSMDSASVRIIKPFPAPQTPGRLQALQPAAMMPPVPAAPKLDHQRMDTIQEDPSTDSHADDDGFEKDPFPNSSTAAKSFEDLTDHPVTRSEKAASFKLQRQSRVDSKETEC
UniProt Q9Y5S8: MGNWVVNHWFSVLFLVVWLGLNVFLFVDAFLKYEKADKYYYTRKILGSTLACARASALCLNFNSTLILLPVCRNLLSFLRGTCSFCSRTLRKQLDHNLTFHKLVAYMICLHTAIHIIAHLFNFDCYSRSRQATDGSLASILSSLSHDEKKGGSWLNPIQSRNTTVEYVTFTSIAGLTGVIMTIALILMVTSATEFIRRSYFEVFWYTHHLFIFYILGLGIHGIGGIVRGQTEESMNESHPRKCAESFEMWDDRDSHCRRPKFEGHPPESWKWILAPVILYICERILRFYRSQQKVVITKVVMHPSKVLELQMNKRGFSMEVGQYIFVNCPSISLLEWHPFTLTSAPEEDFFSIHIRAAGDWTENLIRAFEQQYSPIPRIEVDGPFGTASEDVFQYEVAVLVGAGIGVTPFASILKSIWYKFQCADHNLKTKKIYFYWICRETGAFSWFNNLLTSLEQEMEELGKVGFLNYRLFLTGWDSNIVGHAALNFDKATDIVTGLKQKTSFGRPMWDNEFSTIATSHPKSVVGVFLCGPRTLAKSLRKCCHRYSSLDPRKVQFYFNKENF
UniProt Q8CIZ9: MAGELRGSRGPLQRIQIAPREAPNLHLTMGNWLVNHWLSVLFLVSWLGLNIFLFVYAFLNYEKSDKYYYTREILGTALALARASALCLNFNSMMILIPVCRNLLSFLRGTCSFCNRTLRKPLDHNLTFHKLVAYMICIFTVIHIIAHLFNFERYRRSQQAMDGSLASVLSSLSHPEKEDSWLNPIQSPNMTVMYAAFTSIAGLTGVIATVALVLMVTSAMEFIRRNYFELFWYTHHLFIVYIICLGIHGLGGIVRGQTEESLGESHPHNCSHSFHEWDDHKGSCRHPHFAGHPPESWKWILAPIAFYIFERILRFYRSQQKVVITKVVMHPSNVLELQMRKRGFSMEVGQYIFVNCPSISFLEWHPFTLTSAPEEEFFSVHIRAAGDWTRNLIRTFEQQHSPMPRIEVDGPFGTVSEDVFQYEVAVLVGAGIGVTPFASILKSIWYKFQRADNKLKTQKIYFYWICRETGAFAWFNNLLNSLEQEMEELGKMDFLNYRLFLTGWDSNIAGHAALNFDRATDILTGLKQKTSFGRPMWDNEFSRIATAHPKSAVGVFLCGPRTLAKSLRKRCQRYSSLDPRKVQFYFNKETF

[5] = target: T2, membrane melanoma cell adhesion molecule (MCAM), human (human (endogenous in HUVEC and DLD1)) (UniProt P43121); test: as above
T2 sequence: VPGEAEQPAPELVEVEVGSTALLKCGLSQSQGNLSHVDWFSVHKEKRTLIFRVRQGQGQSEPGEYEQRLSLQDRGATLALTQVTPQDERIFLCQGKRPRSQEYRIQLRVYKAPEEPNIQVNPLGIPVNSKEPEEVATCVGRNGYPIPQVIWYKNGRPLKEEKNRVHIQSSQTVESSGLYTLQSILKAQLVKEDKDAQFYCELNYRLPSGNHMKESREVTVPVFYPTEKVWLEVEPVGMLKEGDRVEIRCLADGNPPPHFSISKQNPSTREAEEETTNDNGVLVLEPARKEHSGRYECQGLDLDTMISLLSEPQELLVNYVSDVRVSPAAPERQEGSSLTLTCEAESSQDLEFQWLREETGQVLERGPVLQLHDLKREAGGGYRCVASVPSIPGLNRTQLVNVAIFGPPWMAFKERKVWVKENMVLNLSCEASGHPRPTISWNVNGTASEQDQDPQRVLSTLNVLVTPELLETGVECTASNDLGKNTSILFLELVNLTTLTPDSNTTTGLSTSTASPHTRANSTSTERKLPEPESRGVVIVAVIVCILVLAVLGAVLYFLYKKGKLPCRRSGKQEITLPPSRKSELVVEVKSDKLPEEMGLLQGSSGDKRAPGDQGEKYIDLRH

[6] = target: T3, membrane melanoma cell adhesion molecule (MCAM), mouse (mouse (endogenous in MC38 and B16F10)) (UniProt Q8R2Y2); test: co-IP; endogenous proteins in whole lysates of mouse cancer cells (MC38, B16F10); NP-40 lysis buffer with protease and phosphatase inhibitors; primary antibody overnight at 4 °C, protein G magnetic beads 2 h at 4 °C, three washes; Western blot
T3 sequence: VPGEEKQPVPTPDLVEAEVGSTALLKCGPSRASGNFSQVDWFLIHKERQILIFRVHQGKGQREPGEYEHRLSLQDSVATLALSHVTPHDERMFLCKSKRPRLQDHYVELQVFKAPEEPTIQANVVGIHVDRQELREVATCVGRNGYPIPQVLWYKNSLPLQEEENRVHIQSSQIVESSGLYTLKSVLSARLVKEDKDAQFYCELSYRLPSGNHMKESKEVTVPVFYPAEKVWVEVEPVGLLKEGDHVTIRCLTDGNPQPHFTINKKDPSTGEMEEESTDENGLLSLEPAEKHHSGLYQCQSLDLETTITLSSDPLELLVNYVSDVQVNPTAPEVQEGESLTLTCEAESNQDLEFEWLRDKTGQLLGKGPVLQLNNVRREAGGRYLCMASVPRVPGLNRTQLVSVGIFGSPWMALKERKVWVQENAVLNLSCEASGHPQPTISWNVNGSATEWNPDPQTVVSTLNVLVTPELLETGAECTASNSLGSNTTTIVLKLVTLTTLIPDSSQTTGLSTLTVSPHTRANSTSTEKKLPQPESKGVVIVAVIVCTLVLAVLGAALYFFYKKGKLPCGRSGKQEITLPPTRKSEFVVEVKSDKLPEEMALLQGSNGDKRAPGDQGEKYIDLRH

[7] = target: NOX1, mouse (mouse (endogenous in MC38 and B16F10)) (UniProt Q8CIZ9); test: as above

**Q.** How did the binding [1] turn out when “NOX1, human (from UniProt Q9Y5S8 1-564) (enzyme)” was run?
**A.** binds

**Q.** With “NOX1, mouse (from UniProt Q8CIZ9 1-591) (enzyme)” as the molecule, how does the binding [2] read?
**A.** binds

**Q.** How did the binding [3] turn out when “ADAM17, human (from UniProt P78536) (enzyme)” was run?
**A.** binds

**Q.** What about the binding [4] of the same molecule?
**A.** binds

**Q.** What about the binding [5] of the same molecule?
**A.** binds

**Q.** What does the source list for “ADAM17, mouse (from UniProt Q9Z0F8) (enzyme)”?
**A.** binding [6]: binds; binding [7]: binds

**Q.** How did the binding [1] turn out when “membrane melanoma cell adhesion molecule (MCAM), human (from UniProt P43121 24-646)” was run?
**A.** binds

B1: membrane melanoma cell adhesion molecule (MCAM), mouse (protein, UniProt Q8R2Y2 24-648)
chain: VPGEEKQPVPTPDLVEAEVGSTALLKCGPSRASGNFSQVDWFLIHKERQILIFRVHQGKGQREPGEYEHRLSLQDSVATLALSHVTPHDERMFLCKSKRPRLQDHYVELQVFKAPEEPTIQANVVGIHVDRQELREVATCVGRNGYPIPQVLWYKNSLPLQEEENRVHIQSSQIVESSGLYTLKSVLSARLVKEDKDAQFYCELSYRLPSGNHMKESKEVTVPVFYPAEKVWVEVEPVGLLKEGDHVTIRCLTDGNPQPHFTINKKDPSTGEMEEESTDENGLLSLEPAEKHHSGLYQCQSLDLETTITLSSDPLELLVNYVSDVQVNPTAPEVQEGESLTLTCEAESNQDLEFEWLRDKTGQLLGKGPVLQLNNVRREAGGRYLCMASVPRVPGLNRTQLVSVGIFGSPWMALKERKVWVQENAVLNLSCEASGHPQPTISWNVNGSATEWNPDPQTVVSTLNVLVTPELLETGAECTASNSLGSNTTTIVLKLVTLTTLIPDSSQTTGLSTLTVSPHTRANSTSTEKKLPQPESKGVVIVAVIVCTLVLAVLGAALYFFYKKGKLPCGRSGKQEITLPPTRKSEFVVEVKSDKLPEEMALLQGSNGDKRAPGDQGEKYIDLRH
**Q.** How did the binding [2] turn out when B1 was run?
**A.** binds

Source: publication PMC10740863
